In this data set the test system is PhiKZ nvRNAP GP55 (beta'-like) + PhiKZ nvRNAP GP74 (beta'-like) + PhiKZ nvRNAP GP71-73 (beta-like) + PhiKZ nvRNAP GP123 (beta-like) + PhiKZ nvRNAP GP68 (sigma-like, promoter recognition). As to the kind of experiment: EMSA (native PAGE). The conditions noted are these: 40 mM Tris-Cl pH 8.0, 10 mM MgCl2, 5 mM DTT, 1 mM ATP/CTP/GTP, 30 min at 37 C, nvRNAP 0.1 mg/mL with scaffold 1:1; native PAGE 4-20% TGX at 4 C; recombinant protein; label: Cy5 at 5' end of RNA (printed Cy5-GUAGA). (In general: Mobility shift assays separate free from complexed probe on a gel.)

Construct, isoform or probe ends are uncertain for at least one entry. At least one verdict rests on a figure or table, not on a statement of the authors.

Take “AGTAATTTTAGTGAATGTATTTGCTATATTGCTATCCTAACAGTTCCCAAAAGCCTAAAGTTACAATATAGGTAC / GTACCTATATTGTAACTTTAGGCTTTTGGGAACTGTCTACATAGCAATATAGCAAATACATTCACTAAAATTACT / GUAGA [p119L-4nt RNA/DNA template]”: the binding result is “binds”.

For the origin of these results see PMC7618050, “Structure of the Bacteriophage PhiKZ non-virion RNA Polymerase transcribing from its promoter p119L”.
